Screen size: about 360,000 compounds; about 7,500 (2.1%) were called active. The inconclusive results got no clear call from the source; some entries with a clear call stand among them for comparison. The call rests on the fitted dose curve; in most records, active means well fitted inhibition curve with a large enough effect; inconclusive means small, poorly fitted or top-dose-only effect, or effect the other way; inactive means flat fitted curve, though single readings scatter. Potencies beside an inconclusive call are fits to weak or partial responses and may not hold up.
Test: Nrf2 qHTS screen for inhibitors; further: nearly all actives have a fitted effect of over 60% in size
Conditions: A549 ARE-Fluc reporter, luciferase luminescence, 18-24 h; series mostly up to 46 µM
Method in brief: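 Quantitative HTS in A549 cells stably bearing an antioxidant response element-firefly luciferase construct. Inhibition of Nrf2-driven transcription was scored by luminescence after 18-24 h of compound exposure at 37 °C.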
Potency means the concentration at half of the fitted maximal effect.

Structure (SMILES) | Potency
COc1ccc(-c2ccc([C@H]3[C@H]4C=CC[C@@H](C)[C@@H]4C(=O)N3Cc3ccccc3)c(F)c2)cc1 | inconclusive: 29.1 µM [falling, single point]
Clc1ccc(-c2cnnc(-c3ccccn3)n2)cc1 | inconclusive: 14.6 µM [activator, partial curve]
CCN1C(=O)c2ccccc2Sc2ccc(C(=O)NCCC(C)C)cc21 | inconclusive: 25.9 µM [falling, single point]
COc1ccccc1CNC(=O)c1cc2cc(C)ccc2n1C | inconclusive: 23.1 µM [activator, partial curve]
CC1=C(C(=O)OC(C)(C)C)C(c2cccc3ccccc23)NC(=O)N1 (centres undefined) | inconclusive: 16.4 µM [falling, single point]
O=C(CSc1nc2c(cnn2-c2ccc(F)cc2)c(=O)[nH]1)N1CCOCC1 | inconclusive: 32.6 µM [falling, single point]
CC(C)c1c(C(=O)N/N=C/c2ccncc2)nnn1-c1nonc1N | inconclusive: 4.11 µM [falling, partial curve]
COc1ccc(-c2cc(C(F)(F)F)nc(SCCC(=O)Nc3cccc(O)c3)n2)cc1 | inconclusive: 29.1 µM [falling, single point]
CN(C)c1nc2sc3c(c2c(=O)n1C)CC(C)(C)OC3 | inconclusive: 11.6 µM [falling, partial curve]
C=CCOc1ccc(/C(O)=C2\C(=O)C(=O)N(CCOC)C2c2cccnc2)cc1 (centres undefined) | inconclusive: 3.66 µM [activator, partial curve, poor fit]
Cc1ccc(-c2nn(-c3ccc(F)cc3)cc2C(=O)NCC2CCCO2)cc1 (centres undefined) | inconclusive: 5.17 µM [activator, full curve, poor fit]
Cc1ccc(C)c(NC(=O)COc2coc(CN3CCc4ccccc4C3)cc2=O)c1 | active: 10.3 µM
O=S(=O)(NCCN1CCOCC1)c1ccc(Oc2ccccc2Cl)cc1 | inconclusive: 29.1 µM [falling, single point]
Cc1ccc(C(C)NC(=O)C23CC4CC(CC(C4)C2)C3)cc1 (centres undefined) | inconclusive: 4.61 µM [falling, full curve, poor fit]
CC1CCN(c2ccc(NC(=O)c3ccc(Br)o3)cc2)CC1 | inconclusive: 4.61 µM [activator, partial curve]
O=C(Nc1ccc(C(=O)N2CCN(c3ccc(F)cc3)CC2)cc1)C1=CSCCO1 | inconclusive: 7.31 µM [falling, partial curve, poor fit]
COc1ccc(NC(=O)Cn2cc(C(=O)C3CCCCC3)c3ccccc32)cc1 | inconclusive: 11.6 µM [falling, partial curve, poor fit]
C=C(C)CNC(=S)NN=C1c2ccccc2-c2ccccc21 | inconclusive: 18.4 µM [falling, partial curve]
Cc1c(Cl)cccc1NC(=O)C(=O)NCC(c1cccnc1)N1CCN(c2ccccc2)CC1 (centres undefined) | inactive
COc1ccc2c(c1)OC/C(=C/c1cccs1)C2=O | inconclusive: 20.6 µM [activator, partial curve, poor fit]
O=C1CN(C(=O)COC(=O)c2ccc(N3CCCCCC3)c([N+](=O)[O-])c2)c2ccccc2N1 | inconclusive: 0.82 µM [activator, full curve]
CCC(C)NC(=O)C1CC(=O)N(CCc2ccc(F)cc2)C1 (centres undefined) | inactive

Structure (SMILES) | Potency
O=C(CSc1nnc(-c2ccc(Br)cc2)o1)N1CCN(C(=O)c2ccco2)CC1 | inconclusive: 9.2 µM [falling, partial curve]
CC12CCC(C(=O)Nc3cc(Cl)ccc3Cl)(C(Br)C1=O)C2(C)C (centres undefined) | inconclusive: 29.1 µM [falling, single point]
CCN=c1scc(-c2ccccc2)n1/N=C/c1ccccn1 | inconclusive: 2.31 µM [activator, partial curve]
O=C(O)Cc1ccc(NC(=O)c2cccc(NC(=O)c3ccco3)c2)cc1 | inconclusive: 13 µM [activator, partial curve, poor fit]
CCOC(=O)c1c(NC(=O)COc2ncnc3ccccc23)sc(C)c1CC | inconclusive: 8.2 µM [falling, partial curve, poor fit]
Cc1cccc(NC(=O)C2CCN(S(=O)(=O)c3ccc4c(c3)CCCC(=O)N4)CC2)c1 | inconclusive: 29.1 µM [falling, single point]
CC(C)c1cc(C(N)=O)c(NC(=O)c2cccc(COc3ccc(Br)cc3)c2)s1 | inconclusive: 2.31 µM [activator, partial curve]
CCOc1ccc2[nH]c(=O)c(CN(Cc3ccco3)C(=O)c3cccc(F)c3)cc2c1 | inactive
CC(=O)N1c2ccc(Cl)cc2C2C=CCC2C1c1cccc2ccccc12 (centres undefined) | inconclusive: 29.1 µM [falling, single point]
COc1cc2c(cc1OC)CN(C(=O)c1cccc([N+](=O)[O-])c1)CC2 | inconclusive: 13 µM [falling, partial curve, poor fit]
COC(=O)c1ccc(Cn2nnc3sc4c(c3c2=O)CCCC4)cc1 | inconclusive: 14.6 µM [activator, partial curve]
CCc1ccccc1OCCSc1nnc(-c2cc(OC)c(OC)c(OC)c2)o1 | inactive
O=C(N/N=C/c1ccco1)c1cccc(N2CCCC2=O)c1 | inconclusive: 18.4 µM [activator, partial curve]
O=C(CN1C(=O)CCC1=O)c1ccc(-c2ccccc2)cc1 | inconclusive: 9.2 µM [activator, partial curve]
C=CCC[C@@H](Cc1ccc(F)cc1)C(=O)O[C@H](CNC(=O)[C@H](CC=C)CC(=O)N(CCO)Cc1ccccc1)c1ccccc1 | active: 18.4 µM
COC(=O)c1ccc(CSc2nc3ccccc3c(=O)n2-c2cccc(OC)c2)o1 | inconclusive: 29.1 µM [falling, single point]
CCC(C)c1ccc(C(C)NC(=S)NCc2ccc(F)cc2)cc1 (centres undefined) | active: 14.6 µM
CCOC(=O)NC(=O)CSc1ccccn1 | inconclusive: 32.6 µM [activator, single point]
CCN(CC)c1cc(C)c2cc(NC(=O)c3ccc(Br)o3)ccc2n1 | active: 11.6 µM
COc1ccc(-c2csc(N(CCCN(C)C)C(=O)c3ccccc3C)n2)cc1 | inactive
Cc1ccc(C)c(Nc2nc3nonc3nc2Nc2cccc(C)c2C)c1 | active: 5.8 µM
COC(=O)c1c(NC(=O)CN2CCC3(O)CCCCC3C2c2cc(OC)ccc2OC)sc(C)c1C (centres undefined) | active: 18.4 µM

Structure (SMILES) | Potency
COc1cccc(N2CCN(c3c4c(nc5ncnn35)CCC4)CC2)c1 | active: 13 µM
CS(=O)(=O)N1CCC(C(=O)Nc2ccc(Cl)c(C(F)(F)F)c2)CC1 | inconclusive: 29.1 µM [falling, single point]
COCCN(CCOC)Cc1c(O)ccc2c1O/C(=C\c1ccco1)C2=O | inactive
Cc1ccc(C(=O)NC(NC(=S)Nc2ccc(S(N)(=O)=O)cc2)C(Cl)(Cl)Cl)cc1 (centres undefined) | inactive
COc1ccc(C)cc1-n1nnnc1SCC(=O)c1cc(C)n(Cc2ccco2)c1C | inconclusive: 25.9 µM [activator, single point]
O=C(CSc1nc2ccccc2s1)Nc1ccc2c(c1)oc1ccccc12 | inconclusive: 23.1 µM [activator, partial curve]
CC(C)Cc1nnc(NC(=O)CCC(=O)N2CCN(c3ccc(Cl)cc3)CC2)s1 | active: 18.4 µM
CCS(=O)(=O)Nc1cc(-c2nc3cccnc3s2)ccc1C | inconclusive: 2.06 µM [activator, partial curve]
COc1cccc(Oc2nnnn2-c2ccccc2)c1 | inconclusive: 10.3 µM [activator, partial curve]
O=C(CCC(=O)N1CCN(S(=O)(=O)c2ccc(Cl)cc2)CC1)Nc1ccc2ccccc2c1 | inconclusive: 29.1 µM [falling, single point]
Cn1nc(C(F)(F)F)c(C#N)c1N1CCN(c2ccccc2)CC1 | inconclusive: 7.31 µM [falling, partial curve, poor fit]
CCOc1ccc(N(CC(=O)Nc2ccccc2C(=O)NC(C)CC)S(C)(=O)=O)cc1 (centres undefined) | inconclusive: 2.31 µM [activator, full curve]
Cc1cc(Br)ccc1OCC(=O)NC1CCCC1 | inconclusive: 29.1 µM [falling, single point]
CCN(CC)CCN=CC1=C(O)CNC1=O | inconclusive: 7.31 µM [falling, partial curve, poor fit]
Cc1ccc(C(=O)NC(C)(COc2nonc2C)COc2nonc2C)cc1 | inconclusive: 9.2 µM [falling, partial curve, poor fit]
Cc1ccc(S(=O)(=O)Nc2cccc(C(=O)NCCCN3CCCC3=O)c2)cc1F | inconclusive: 29.1 µM [falling, partial curve, poor fit]
CC(=O)c1c(C)[nH]c(C(=O)N2CCN(S(=O)(=O)c3ccc(C)cc3C)CC2)c1C | inconclusive: 8.2 µM [falling, partial curve, poor fit]
COc1cccc(C(=O)N2CCN(C(=O)c3ccc(-c4ccccc4)cc3)CC2)c1OC | inconclusive: 20.6 µM [falling, single point]
Cc1c(/C=N/NC(=O)c2ccc(O)cc2)c2ccccn2c1C(=O)c1ccc(F)cc1 | inconclusive: 29.1 µM [falling, single point]
CCCc1cc(C(=O)OCC(=O)N2CCN(c3ccc(OC)cc3)CC2)sc1C | inconclusive: 18.4 µM [falling, partial curve, poor fit]

13 entries from above in a different format.
Structure (SMILES)	Potency
COc1cccc(N2CCN(c3c4c(nc5ncnn35)CCC4)CC2)c1	active: 13 µM
CS(=O)(=O)N1CCC(C(=O)Nc2ccc(Cl)c(C(F)(F)F)c2)CC1	inconclusive: 29.1 µM [falling, single point]
COCCN(CCOC)Cc1c(O)ccc2c1O/C(=C\c1ccco1)C2=O	inactive
COc1ccc(C)cc1-n1nnnc1SCC(=O)c1cc(C)n(Cc2ccco2)c1C	inconclusive: 25.9 µM [activator, single point]
O=C(CSc1nc2ccccc2s1)Nc1ccc2c(c1)oc1ccccc12	inconclusive: 23.1 µM [activator, partial curve]
O=C(CCC(=O)N1CCN(S(=O)(=O)c2ccc(Cl)cc2)CC1)Nc1ccc2ccccc2c1	inconclusive: 29.1 µM [falling, single point]
Cn1nc(C(F)(F)F)c(C#N)c1N1CCN(c2ccccc2)CC1	inconclusive: 7.31 µM [falling, partial curve, poor fit]
CCOc1ccc(N(CC(=O)Nc2ccccc2C(=O)NC(C)CC)S(C)(=O)=O)cc1 (centres undefined)	inconclusive: 2.31 µM [activator, full curve]
Cc1cc(Br)ccc1OCC(=O)NC1CCCC1	inconclusive: 29.1 µM [falling, single point]
CCN(CC)CCN=CC1=C(O)CNC1=O	inconclusive: 7.31 µM [falling, partial curve, poor fit]
Cc1ccc(S(=O)(=O)Nc2cccc(C(=O)NCCCN3CCCC3=O)c2)cc1F	inconclusive: 29.1 µM [falling, partial curve, poor fit]
COc1cccc(C(=O)N2CCN(C(=O)c3ccc(-c4ccccc4)cc3)CC2)c1OC	inconclusive: 20.6 µM [falling, single point]
Cc1c(/C=N/NC(=O)c2ccc(O)cc2)c2ccccn2c1C(=O)c1ccc(F)cc1	inconclusive: 29.1 µM [falling, single point]
